Laboratory results as given in PubChem BioAssay AID540256 (National Center for Advancing Translational Sciences (NCATS), 2011).
In all, about 300,000 compounds went through this assay and about 3,700 (1.2%) were called active. This list was built around the results that the source calls inconclusive (neither active nor inactive); the mix of calls is not that of the screen. Calls come from the whole dose curve; tested in HEK293 cells. Where the call is inconclusive, the potency comes from a doubtful curve fit.
% is set by controls: 0 for no effect and ±100 for the full control effect; potency is the fitted concentration of half-maximal effect.

Experiment: qHTS for Inhibitors of binding or entry into cells for Lassa Virus; note: nearly all actives have a fitted effect of over 50% in size
Settings: Lassa virus pseudotype entry inhibition, cell reporter; activity change, negative = inhibition: at 37.9 µM (top of the series) unless noted
In the case of CC1CCN(CCCOc2ccc(Br)cc2Cl)CC1, the Potency is reported as inconclusive: 35.5 µM [inhibitor, single point].
For Cc1ccc(C)n1-c1ccc(C(=O)NCc2ccncc2)cc1, the “activity change, negative = inhibition” value was inactive: -1.01%.
With COC(=O)CN1C(=O)C(C)(C)c2cc(S(=O)(=O)NCc3ccc(Cl)cc3)ccc21 the “activity change, negative = inhibition” value was inactive: 9.75% [at 46.1 µM].
In the case of CC(=O)c1cccc(CN2CCC(n3nccc3NC(=O)CCOc3ccccc3)CC2)c1, the “activity change, negative = inhibition” value is reported as inactive: -10.7%.
For Cc1ccc2scc(N3CCN(c4cccc(C(F)(F)F)c4)CC3)c(=O)c2c1, the Potency was inconclusive: 11.2 µM [activator, single point].
In the case of S=C(NCc1ccc(Cl)c(Cl)c1)Nc1ccc2c(c1)OCO2, the “activity change, negative = inhibition” value is reported as inactive: 8.65%.
With Cc1ccc(OCc2nc(C#N)c(NCc3ccc4c(c3)OCO4)o2)cc1 the Potency was inconclusive: 35.5 µM [inhibitor, partial curve, poor fit].
For COc1cccc(CN(CC2CCCO2)S(=O)(=O)c2ccc(S(=O)(=O)NCC3CCCO3)cc2)c1OC (stereo not given), the Potency was inconclusive: 7.3 µM [inhibitor, single point].
With CCOC(=O)C1(Cc2cccc(OC)c2)CCN(Cc2cc(OC)ccc2OC)CC1 the Potency was inconclusive: 35.5 µM [inhibitor, single point].
For CSc1nc2ccc(Nc3nc(N4CCOCC4)nc(N4CCOCC4)n3)cc2s1, the Potency was inconclusive: 10.3 µM [inhibitor, partial curve, poor fit].
For Cc1ccn2c(Nc3c(C)cccc3C)c(-c3ccc(Cl)s3)nc2c1, the “activity change, negative = inhibition” value was inactive: -5.32% [at 46.1 µM].
With CCOC(=O)CSC1=C(C#N)C(c2ccccc2Cl)C(C(=O)OC)C(=O)N1 (stereo not given) the Potency was inconclusive: 20.6 µM [inhibitor, single point].
For C=CCNC(=S)Nc1sc2c(c1C#N)CCCC2, the “activity change, negative = inhibition” value was inactive: 26.6%.
With Cc1cccc(NC(=S)N/N=C/c2ccc([N+](=O)[O-])s2)c1 the Potency was active: 15.8 µM.
For COc1ccc(CN2CC(=O)N(c3cc(Cl)ccc3C)C2=S)cc1OC, the Potency was inconclusive: 14.1 µM [inhibitor, partial curve, poor fit].
For COc1cccc(-c2nc(NC(C)(C)C)c3ccccc3n2)c1O, the Potency was inconclusive: 0.116 µM [activator, full curve, poor fit].
For COc1ccccc1NS(=O)(=O)c1cccc(C(=O)NC2CCN(Cc3ccccc3)CC2)c1, the “activity change, negative = inhibition” value was inactive: -28.1%.
With O=C(Nc1ccc(Br)cc1)c1ccc(Cl)c(S(=O)(=O)N2CCCCCC2)c1 the Potency was inconclusive: 11.2 µM [inhibitor, partial curve, poor fit].
With CCn1c(SCC(=O)Nc2ccc(NC(=O)c3ccco3)c(OC)c2)nc2ccccc2c1=O the “activity change, negative = inhibition” value was inactive: -24.7% [at 14.3 µM].
In the case of COc1cccc(NC(=O)c2sc3nc(C)c(C(=O)Nc4ccc(C)cc4C)c(-c4cccs4)c3c2N)c1, the Potency is reported as inconclusive: 3.55 µM [inhibitor, single point].
In the case of Cc1ccc(-c2nc(-c3cc4cccc(OCc5cccc(F)c5)c4oc3=O)no2)cc1, the Potency is reported as inconclusive: 3.98 µM [activator, full curve, poor fit].
For CCN(CC)c1nc2c(s1)C(=O)CC(C)(C)C2, the “activity change, negative = inhibition” value was inactive: -1.15%.
For CCOc1ccc(-n2c(Cc3ccccc3)nnc2SCc2nc(-c3cccs3)no2)cc1, the Potency was inconclusive: 3.55 µM [inhibitor, partial curve, poor fit].
In the case of CCC(CC)C(=O)N1CCc2cc(OC)c(OC)cc2C1COc1ccc(C(=O)OC)cc1 (stereo not given), the “activity change, negative = inhibition” value is reported as inactive: -5.75% [at 46.1 µM].
With O=C(NCCN1CCOCC1)c1cccs1 the “activity change, negative = inhibition” value was inactive: 4.07%.
In the case of COc1ccc(C)cc1NC(=O)CSc1nc(=O)[nH]c2c1CCCC2, the “activity change, negative = inhibition” value is reported as inactive: -1.57% [at 46.1 µM].
With CCC/C(=N\NC(=O)c1ccccc1C)c1ccccc1 the Potency was inconclusive: 3.16 µM [activator, single point].
In the case of CC(=O)Nc1cccc(NC(=O)CCNC(=O)c2ccccc2)c1, the “activity change, negative = inhibition” value is reported as inactive: -3.26%.
With CCOC(=O)c1ccc(NC(=O)NNS(=O)(=O)c2cc(OC)ccc2OC)cc1 the “activity change, negative = inhibition” value was inactive: 7.6%.
With Cn1c(SCC(=O)Nc2ncc(C(F)(F)F)cc2Cl)nnc1-c1ccc(Cl)cc1 the Potency was inconclusive: 0.0517 µM [inhibitor, full curve, poor fit].
With O=C(CSc1nnc(Nc2ccccc2)s1)NCCN1C(=O)CSC1=O the “activity change, negative = inhibition” value was inactive: 14.9%.
For CCCCNC(=S)N(C)/N=C/c1sc(N2CCCCC2)nc1-c1cccs1, the “activity change, negative = inhibition” value was inactive: 1.14%.
For CSc1ccc(-c2nnn(CC(=O)NCc3ccccc3)n2)cc1, the Potency was inconclusive: 17.8 µM [inhibitor, single point].
For Cc1ccc(S(=O)(=O)N2CCCCC2)cc1C(=O)Nc1ccc(N2CCOCC2)cc1, the “activity change, negative = inhibition” value was inactive: -0.0989%.
In the case of COc1ccc2nc(N3CCCC3)c(C#N)cc2c1, the Potency is reported as inconclusive: 4.11 µM [activator, full curve, poor fit].
In the case of COc1ccc2c(c1)c(C(C)=O)c(C)n2-c1ccccc1OC, the Potency is reported as inconclusive: 10 µM [inhibitor, partial curve, poor fit].
With O=C(CSc1nccn(-c2ccc(Br)cc2)c1=O)NC1CCCC1 the Potency was inconclusive: 11.2 µM [inhibitor, partial curve, poor fit].
With COc1ccc(/C=N/NC(=O)c2[nH]c3ccc(Br)cc3c2-c2ccccc2)cc1 the Potency was inconclusive: 0.92 µM [inhibitor, full curve].
In the case of O=C(CSC1=N/C(=C/c2ccc(Cl)c(Cl)c2)C(=O)N1c1ccccc1F)NC1CC1, the Potency is reported as inconclusive: 22.4 µM [inhibitor, single point].
In the case of Cc1ccc(S(=O)(=O)N2CCN(C(=O)C3CCN(C(=O)c4ccc(F)cc4)CC3)CC2)c(C)c1, the Potency is reported as inconclusive: 5.01 µM [activator, full curve, poor fit].
For CC(=O)Nc1ccc(NC(=O)Nc2ccc3c(c2)N(C)C(=O)CS3)cc1, the “activity change, negative = inhibition” value was inactive: -2.58%.
With O=C(NNC(=O)C1CCC(C(=O)NNC(=O)c2cccs2)CC1)c1cccs1 (stereo not given) the “activity change, negative = inhibition” value was inactive: -0.621% [at 46.1 µM].
For Cc1ccc2[nH]c(=O)c3cc(C(=O)NCCN4CCN(C)CC4)sc3c2c1, the Potency was inconclusive: 2.06 µM [inhibitor, partial curve, poor fit].
For CCOC(=O)c1ccc(N2C(=O)c3n[nH]c(-c4cccs4)c3C2c2cccc(OC)c2)cc1 (stereo not given), the Potency was inconclusive: 20 µM [inhibitor, partial curve, poor fit].
For O=C(NCCN1CCOCC1)Nc1ccccc1, the Potency was inconclusive: 11.6 µM [activator, partial curve, poor fit].
